Results taken from US20190119298A1, “FUSED 3-PHENYLTETRAMIC ACID DERIVATIVES HAVING HERBICIDAL ACTION” (Bayer CropScience Aktiengesellschaft, priority 2016, published 2019).
Some entries share one result that the patent states for a list of compounds. Some compounds share one range, which may span the group rather than tell each member.

Columns and labels:
Type in all cases: in vivo
Alopecurus myosuroides [1] = assay: Post-emergence herbicidal effect; conditions: one-leaf stage, 320 g/ha, assessed visually after about 3 weeks, 100% = plants have died
Protocol: (§1) ALOMY: Alopecurus myosuroides Seeds of monocotyledonous and dicotyledonous weed and crop plants are laid out in sandy loam soil in wood-fibre pots, covered with soil and cultivated in a greenhouse under good growth conditions. 2 to 3 weeks after sowing, the test plants are treated at the one-leaf stage. The compounds of the invention, formulated in the form of wettable powders (WP) or as emulsion concentrates (EC), are then sprayed onto the green parts of the plants as aqueous suspension or emulsion at a water application rate equating to 600 to 800 L/ha with addition of 0.2% wetting agent. After the test plants have been left to stand in the greenhouse under optimal growth conditions for about 3 weeks, the action of the preparations is assessed visually in comparison to untreated controls (herbicidal action in percent (%): 100% activity=the plants have died, 0% activity=like control plants).

Avena fatua [2] = assay: Post-emergence herbicidal effect; conditions: one-leaf stage, 320 g/ha, assessed visually after about 3 weeks, 100% = plants have died
Protocol: as §1, with “AVEFA: Avena fatua” for “ALOMY: Alopecurus myosuroides”

Echinochloa crus-galli [3] = assay: Post-emergence herbicidal effect; conditions: one-leaf stage, 320 g/ha, assessed visually after about 3 weeks, 100% = plants have died
Protocol: as §1, with “ECHCG: Echinochloa crus-galli” for “ALOMY: Alopecurus myosuroides”

Lolium multiflorum [4] = assay: Post-emergence herbicidal effect; conditions: one-leaf stage, 320 g/ha, assessed visually after about 3 weeks, 100% = plants have died
Protocol: as §1, with “LOLMU: Lolium multiflorum” for “ALOMY: Alopecurus myosuroides”

Setaria viridis [5] = assay: Post-emergence herbicidal effect; conditions: one-leaf stage, 320 g/ha, assessed visually after about 3 weeks, 100% = plants have died
Protocol: as §1, with “SETVI: Setaria viridis” for “ALOMY: Alopecurus myosuroides”

Alopecurus myosuroides [6] = assay: Pre-emergence herbicidal effect; conditions: 320 g/ha, scored visually after 3 weeks vs untreated controls, 100% = plants have died
Source text: (§2) Seeds of monocotyledonous and dicotyledonous weed plants and crop plants are laid out in sandy loam soil in wood-fibre pots and covered with soil. The compounds of the invention, formulated in the form of wettable powders (WP) or as emulsion concentrates (EC), are then applied to the surface of the covering soil as aqueous suspension or emulsion at a water application rate equating to 600 to 800 L/ha with addition of 0.2% wetting agent. After the treatment, the pots are placed in a greenhouse and kept under good growth conditions for the trial plants. The damage to the test plants is scored visually after a test period of 3 weeks by comparison with untreated controls (herbicidal activity in percent (%): 100% activity=the plants have died, 0% activity=like control plants). ALOMY: Alopecurus myosuroides

Avena fatua [7] = assay: Pre-emergence herbicidal effect; conditions: 320 g/ha, scored visually after 3 weeks vs untreated controls, 100% = plants have died
Source text: as §2, with “AVEFA: Avena fatua” for “ALOMY: Alopecurus myosuroides”

Echinochloa crus-galli [8] = assay: Pre-emergence herbicidal effect; conditions: 320 g/ha, scored visually after 3 weeks vs untreated controls, 100% = plants have died
Source text: as §2, with “ECHCG: Echinochloa crus-galli” for “ALOMY: Alopecurus myosuroides”

Lolium multiflorum [9] = assay: Pre-emergence herbicidal effect; conditions: 320 g/ha, scored visually after 3 weeks vs untreated controls, 100% = plants have died
Source text: as §2, with “LOLMU: Lolium multiflorum” for “ALOMY: Alopecurus myosuroides”

Setaria viridis [10] = assay: Pre-emergence herbicidal effect; conditions: 320 g/ha, scored visually after 3 weeks vs untreated controls, 100% = plants have died
Source text: as §2, with “SETVI: Setaria viridis” for “ALOMY: Alopecurus myosuroides”

Cyperus esculentus = assay: Pre-emergence herbicidal effect; conditions: application rate 320 g/ha

Row | Structure (SMILES) | Post-emergence effectiveness ALOMY (herbicidal action in percent) (Alopecurus myosuroides [1]) | Post-emergence effectiveness AVEFA (herbicidal action in percent) (Avena fatua [2]) | Post-emergence effectiveness ECHCG (herbicidal action in percent) (Echinochloa crus-galli [3]) | Post-emergence effectiveness LOLMU (herbicidal action in percent) (Lolium multiflorum [4]) | Post-emergence effectiveness SETVI (herbicidal action in percent) (Setaria viridis [5]) | Pre-emergence action ALOMY (herbicidal activity in percent) (Alopecurus myosuroides [6]) | Pre-emergence action AVEFA (herbicidal activity in percent) (Avena fatua [7]) | Pre-emergence action ECHCG (herbicidal activity in percent) (Echinochloa crus-galli [8]) | Pre-emergence action LOLMU (herbicidal activity in percent) (Lolium multiflorum [9]) | Pre-emergence action SETVI (herbicidal activity in percent) (Setaria viridis [10]) | Pre-emergence effect against Cyperus esculentus (Cyperus esculentus)
1 | Cc1cc(C)c(C2=C(O)C3COCCCN3C2=O)c(C)c1 (racemic) [Ia-2-1] | 90-100% | 90-100% | 90-100% | 90-100% | 90-100% | – | – | – | – | – | –
2 | CCc1cc(C)cc(CC)c1C1=C(O)C2COCCCN2C1=O (racemic) [Ia-2-2] | 90-100% | 90-100% | 90-100% | 90-100% | 90-100% | – | – | – | – | – | –
3 | CCc1cc(C)cc(CC)c1C1=C(OC(=O)OC)C2CCOCCN2C1=O (centres unmarked) [Example Ib-1-1, 8-(2,6-Diethyl-4-methylphenyl)-7-oxo-1,2,4,5,7,9a-hexahydropyrrolo[1,2-d][1,4]oxazepin-9-yl methyl carbonate] | 90-100% | 90-100% | 90-100% | 90-100% | 90-100% | 80-100% | 80-100% | 80-100% | 80-100% | 80-100% | 80-100%
4 | Cc1cc(C)c(C2=C(O)C3CCOCCN3C2=O)c(C)c1 (centres unmarked) [Ia-1-1] | – | – | – | – | – | 80-100% | 80-100% | 80-100% | 80-100% | 80-100% | 80-100%
5 | CCc1cc(C)cc(C)c1C1=C(O)C2CCOCCN2C1=O (centres unmarked) [Ia-1-2] | – | – | – | – | – | 80-100% | 80-100% | 80-100% | 80-100% | 80-100% | 80-100%
6 | CCc1cccc(C)c1C1=C(O)C2CCOCCN2C1=O (centres unmarked) [Ia-1-4] | – | – | – | – | – | 80-100% | 80-100% | 80-100% | 80-100% | 80-100% | 80-100%
7 | CCc1cc(C)cc(CC)c1C1=C(OC(=O)C(C)(C)C)C2CCOCCN2C1=O (centres unmarked) [Ib-1-3] | 90-100% | 90-100% | 90-100% | 90-100% | 90-100% | – | – | – | – | – | –
8 | CCc1cc(C)cc(CC)c1C1=C(OC(C)=O)C2CCOCCN2C1=O (centres unmarked) [Ib-1-4] | 90-100% | 90-100% | 90-100% | 90-100% | 90-100% | – | – | – | – | – | –
9 | CCc1cc(C)cc(C)c1C1=C(OC(=O)OC)C2CCOCCN2C1=O (centres unmarked) [Ib-1-6] | 90-100% | 90-100% | 90-100% | 90-100% | 90-100% | – | – | – | – | – | –
10 | CCOC(=O)OC1=C(c2c(C)cc(C)cc2CC)C(=O)N2CCOCCC12 (centres unmarked) [Ib-1-7] | 90-100% | 90-100% | 90-100% | 90-100% | 90-100% | – | – | – | – | – | –
11 | CCc1cc(C)cc(C)c1C1=C(OC(C)=O)C2CCOCCN2C1=O (centres unmarked) [Ib-1-9] | – | – | – | – | – | 80-100% | 80-100% | 80-100% | 80-100% | 80-100% | 80-100%
